Some results were stated once for a whole list of compounds, not compound by compound.
Tested on: HeLa cells
Experiment: Evaluation of cell membrane penetrating ability of FAM-labelled constructs by flow cytometry
Format: cell-based, human
Settings: 10 μM, 20 h incubation, FIG. 1
Procedure: The cell membrane penetrating ability of samples 1 to 3 was evaluated using HeLa cells (an established cell line derived from human cervical cancer cells) as eukaryotic cells. […] In addition, “FAM” in Table 2 indicates the abovementioned fluorescent dye.
HeLa cells were cultured in DMEM (Dulbecco's modified Eagle's medium, manufactured by Fuji Film Wako Pure Chemical Industries, Cat. No. 043-30085) containing 10% FBS (fetal bovine serum), which is an ordinary culture medium.
HeLa cells adhering to the culture plate were washed with PBS, 0.25% trypsin/EDTA solution was added, and the cells were incubated for 3 min at 37° C. After incubation, the same DMEM medium including 10% FBS was added to deactivate the trypsin, and the cells were then precipitated by centrifugation for 5 min at 150×g. […]
The cell penetrating ability of Sample 1 was analyzed by using flow cytometry with respect to the cells (cell pellet) obtained above. […]
Gating was performed using the flow cytometer on the basis of forward scatter (FSC) and side scatter (SSC), a gate was set for the cell population under analysis, and fluorescent intensity was measured for the cell population within this gate. […] Fluorescent intensity was measured using the fluorescence detector FL2 (optimal detection wavelength close to 543 nm) of the flow cytometer, which can detect the fluorescent wavelength of FAM. […]

FAM-VVKSLVKVVKSLVK-CONH2 (N-terminal FAM, C-terminal amide) [Example 1]
fluorescence intensity histogram in comparison with Example 4 (only FAM): shifted to the right

From patent publication US20240262863A1, “PEPTIDE FRAGMENT AND USE THEREOF” (TOAGOSEI CO., LTD., priority 2021, published 2024)
